{
  "source": "PubChem BioAssay AID1347423",
  "about": "(Functional Genomics Laboratory (NCATS/FGL), 2020)",
  "note": "Screen size: about 52,000 sequences; about 210 (0.4%) were called active.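 The calls were made as follows: active = gene whose silencing raises cell survival under the drug, median off-target-corrected z-score across its silencing RNAs 2 or more; inactive = the rest.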 Some of the results follow.",
  "data": [
    {"assay": "Resistance to Poly (ADP-Ribose) Polymerase inhibitor: Gene Identification via Genome-wide siRNA Screen", "conditions": "mouse BRCA2 R2336H ES cells, olaparib, CellTiter-Glo viability; active compounds read high", "how_it_was_run": "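Mouse BRCA2 R2336H ES cells were reverse-transfected with siRNA (20 nM final), treated at 48 h with 500 nM olaparib, and read by CellTiter-Glo after 72 h. Scores: MAD-based z per siRNA, median per gene, seed off-target correction.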", "values": [
      {"sequence": "GGAUCAUCCAAGUGUUCCGTT against Olfr555", "z-score": "inactive: 0.433"},
      {"sequence": "GGAUGCUGUGAGAAGAACUTT against Olfr1416", "z-score": "inactive: -0.168"},
      {"sequence": "GGAAACCUCAUACAAAACATT against Tex14", "z-score": "inactive: 0.202"},
      {"sequence": "GGUCUAAGGCAUGGGUCAATT against 2010001J22Rik", "z-score": "inactive: -0.866"},
      {"sequence": "GGUUUCUUUCUCUGAGUUUTT against Man2a1", "z-score": "inactive: 0.572"},
      {"sequence": "GGCAACAAGAGCUUUACUCTT against Gabrp", "z-score": "inactive: 0.0907"},
      {"sequence": "GGAGAAAAUAACUUGUUUCTT against Ssr3", "z-score": "inactive: 0.639"},
      {"sequence": "GCCUACAUAACCUUAAUAUTT against Slc4a10", "z-score": "inactive: 0.0349"},
      {"sequence": "GCACUGUAACAGCGAGUUATT against Tdgf1", "z-score": "inactive: -0.233"},
      {"sequence": "CGUUAAAUGGCAGUACAGATT against Qk", "z-score": "inactive: 1.03"},
      {"sequence": "CGAGAUAGACCGAAAACUGTT against Rad54l", "z-score": "inactive: 2.39"},
      {"sequence": "GGGCUGUCUCAAUGAGAUGTT against Iigp5", "z-score": "inactive: 0.564"},
      {"sequence": "GGAAACCGUUCUCAUUAAATT against Mrpl30", "z-score": "inactive: -0.327"},
      {"sequence": "GCUGUAAGCUACCGUCUGUTT against Panx2", "z-score": "inactive: 0.276"},
      {"sequence": "GCUAAUCAACAUCUACUUGTT against Nmt2", "z-score": "inactive: 0.699"},
      {"sequence": "GUACAAAGCCUUUAAAGAUTT against Ang3", "z-score": "inactive: 1.79"},
      {"sequence": "GCGGAAAAACAACUGCCAUTT against DXImx46e", "z-score": "inactive: 0.665"},
      {"sequence": "GGUUACCAGUAUGUCUUAGTT against Cryba2", "z-score": "inactive: -1.91"},
      {"sequence": "CCUAAACAAGAUGACGACATT against 1300002A08Rik", "z-score": "inactive: -0.0482"},
      {"sequence": "GCACUGGUGGACAGAUUCUTT against Col3a1", "z-score": "inactive: 1.79"},
      {"sequence": "GGAGAAGUAAUGACAAAUUTT against Foxp4", "z-score": "inactive: -0.525"},
      {"sequence": "UGGCAAAAAGGUGAUAACUTT against Hbb-b2", "z-score": "inactive: 0.357"},
      {"sequence": "GCUAUUUGGUACCCUUUGATT against Olfr600", "z-score": "inactive: -3.27"},
      {"sequence": "UUCACUGUAAGAAUUGUCUTT against V1rd21", "z-score": "inactive: 0.342"},
      {"sequence": "GGUGAAAUAUGCAGUAAAATT against Adam18", "z-score": "inactive: -1.12"},
      {"sequence": "GGCUUUAGCUAAAGAAGAUTT against A830093I24Rik", "z-score": "inactive: -0.182"},
      {"sequence": "GGAAUGUGGGAAUAUUUACTT against Zfp59", "z-score": "inactive: 0.159"},
      {"sequence": "CCGUUCUUCAUAUGAGCUCTT against Olfr164", "z-score": "inactive: 0.329"},
      {"sequence": "GCGGAAGGCACAGAUAGAATT against Ccdc2", "z-score": "inactive: 1.37"},
      {"sequence": "GGAUUUGCCCAAAAUAAAATT against Nap1l5", "z-score": "inactive: 1.4"},
      {"sequence": "GGAUGAUCGGCACUAUAACTT against BC087945", "z-score": "inactive: -0.933"},
      {"sequence": "GGAUCACUUUAUUUGCUAGTT against Btg1", "z-score": "inactive: 0.108"},
      {"sequence": "CGGAUUAUGAGGGACAAGCTT against 2610037M15Rik", "z-score": "inactive: 1.34"},
      {"sequence": "GGAUAUCCGAGGUGCUGUATT against 2410004H02Rik", "z-score": "inactive: 0.689"},
      {"sequence": "GGUUUACAAUGAGAUAGUUTT against Lipf", "z-score": "inactive: -0.114"},
      {"sequence": "GGAGGUGAAAGGCAAAACUTT against Poldip2", "z-score": "inactive: -0.481"},
      {"sequence": "GAGUCUUACAUCAAGAAGATT against 9230106D20Rik", "z-score": "inactive: 0.855"},
      {"sequence": "GGAGACCUAUGAGGUAUUUTT against Ckmt1", "z-score": "inactive: -0.00508"},
      {"sequence": "GGAAAAGACUAACGAGCGGTT against 1110030J09Rik", "z-score": "inactive: 0.0624"},
      {"sequence": "GCUAUGCUACUAAGCAUUCTT against Bmp8b", "z-score": "inactive: -0.657"},
      {"sequence": "GGAAAAUCUACUGUUUCCCTT against 4933425F06Rik", "z-score": "inactive: 0.499"},
      {"sequence": "GGACUCAGGCCAAGAAAGATT against Rrs1", "z-score": "inactive: -0.245"},
      {"sequence": "GGAUGCUGUCCAACUGGAUTT against Plxnb2", "z-score": "inactive: 0.289"},
      {"sequence": "CGGCCUCUCGAAUCGAUAUTT against Usp19", "z-score": "inactive: -0.792"},
      {"sequence": "GGCUCAAUAAUGUUUUCAATT against Smpd3", "z-score": "inactive: 0.44"},
      {"sequence": "CGAGCUUUGCACUUACUAUTT against Vtn", "z-score": "inactive: 1.08"},
      {"sequence": "GCUAUCUCUCUUUUCAACATT against 4732465J04Rik", "z-score": "inactive: 0.241"},
      {"sequence": "CCCUCAUGGUACCUUGGCATT against Slc7a4", "z-score": "inactive: -0.533"},
      {"sequence": "CCUAUUGUAGCAAGUUACATT against Hist1h3f", "z-score": "inactive: 0.45"},
      {"sequence": "GGGUAUAUUUGGAACUACGTT against Pyp", "z-score": "inactive: -0.212"},
      {"sequence": "GCAGUAAGCUUUUGCUAAATT against Zfp334", "z-score": "inactive: 0.908"},
      {"sequence": "GCAUGUUAAGGAGACUCAGTT against Golph3", "z-score": "inactive: -0.706"}
    ]}
  ]
}
